PubChem BioAssay AID686938, Drosophila RNAi Screening Center | 2013

Test: 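Looking for CRAC channel components and the factors controlling them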 (primary screen)
Cell system: Drosophila S2R+ cells
Reagents: long dsRNA against Drosophila genes, about 0.25 µg dsRNA per well, roughly 10,000 cells
Time to read-out: 5 days of knock-down before the calcium assay
Challenge: thapsigargin (SERCA pump blocker) to empty calcium stores; entry signal taken 4 min after adding it
Measured: 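Duplicate raw fluo-4 intensities per well from a plate reader, at rest and four minutes after thapsigargin emptied calcium stores; entry-to-rest ratio filled for only some wells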
Direction: calcium entry signal: higher = stronger calcium signal after store depletion; entry to resting ratio: higher = more calcium entry relative to resting level; resting calcium signal: higher = higher resting calcium signal
Call rule: 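Hit if the duplicate-averaged plate z-score for entry over resting signal is under −3; wells with weak total dye signal (Fmax z < −2) or more than 5 off-targets removed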
Calls: active = strongly reduced calcium entry; inactive = no strong reduction
In all, the deposit lists about 23,000 reagents; shown is a random part of those with a known target gene and a result. Of all reagents, 75 (0.33%) got an active call. 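Raw plate signals without normalisation; calls rest on plate z-scores that were not deposited; ratio present for only 364 wells.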 Unmarked entries are inactive. Reagent sequences are not shown. Not given: the dose of the treatment.

predicted target	DRSC id	calcium entry signal, replicate 1 (fluorescence units)	calcium entry signal, replicate 2 (fluorescence units)	entry to resting ratio	resting calcium signal, replicate 1 (fluorescence units)	resting calcium signal, replicate 2 (fluorescence units)
CtsL1	DRSC05462	3.86e7	5.79e7		2.30e7	2.43e7
CtsL1	DRSC07363	3.28e7	3.32e7		1.46e7	1.41e7
CG14893	DRSC15015	2.69e7	2.72e7		1.27e7	3.95e7
Manf	DRSC14091	3.24e7	2.99e7		1.52e7	1.43e7
CG13991	DRSC02323	3.80e7	4.16e7		1.85e7	1.93e7
CG5500	DRSC15820	3.43e7	4.88e7		1.81e7	2.10e7
CG31815	DRSC01548	2.04e7	2.98e7		1.25e7	1.30e7
CG15117	DRSC06539	2.61e7	2.05e7		1.22e7	1.09e7
Pbgs	DRSC09718	2.72e7	5.04e7		1.46e7	2.28e7
CG6972	DRSC16159	4.23e7	2.91e7		1.98e7	1.32e7
hay	DRSC11354	2.98e7	2.31e7		2.39e7	1.06e7
CG30371	DRSC06835	4.19e7	4.07e7		1.94e7	1.79e7
Ktch	DRSC15094	4.45e7	5.62e7		2.23e7	2.57e7
CG11498	DRSC14315	3.21e7	4.26e7		1.78e7	1.90e7
CG5021	DRSC10469	3.30e7	4.65e7		1.64e7	2.06e7
CG13024	DRSC09904	2.81e7	5.55e7		1.56e7	2.37e7
ms(3)76Cc	DRSC11071	2.65e7	4.49e7		1.33e7	2.03e7
ms(3)76Cc	DRSC21630	3.27e7	3.31e7		1.83e7	1.55e7
CG10910	DRSC06007	4.44e7	5.04e7		1.92e7	2.16e7
Rab9Fb	DRSC19854	3.63e7	4.37e7		1.75e7	1.93e7
wake	DRSC16148	3.94e7	4.58e7		1.92e7	2.13e7
wake	DRSC16149	4.24e7	4.77e7		1.91e7	1.93e7
Rab14	DRSC03403	4.28e7			2.06e7	
CG12448	DRSC01967	4.53e7	3.19e7		1.96e7	1.45e7
CG12288	DRSC02155	3.96e7	2.53e7		1.81e7	1.22e7
Erasp	DRSC07111	3.12e7	2.52e7		1.40e7	1.40e7
Pgk	DRSC00769	4.29e7	4.66e7		2.03e7	2.09e7
Pgk	DRSC23340	3.49e7	3.41e7		2.22e7	1.63e7
Twdlalpha	DRSC19914	3.51e7	3.21e7		1.80e7	1.27e7
DCTN1-p150	DRSC11175	2.70e7	3.73e7		1.19e7	2.60e7
Swim	DRSC04334	3.45e7			1.75e7	
CG34435	DRSC18086	2.37e7	3.31e7		1.22e7	1.53e7
Ns2	DRSC06993	2.86e7	2.28e7		1.28e7	1.17e7
CG15394	DRSC00408	3.47e7	3.96e7		1.71e7	1.94e7
CG15212	DRSC10212	3.01e7	4.63e7		1.46e7	2.15e7
CG42369	DRSC03244	2.46e7	2.18e7		1.29e7	1.07e7
Uch-L5	DRSC11314	4.28e7	4.06e7		3.09e7	1.84e7
Sc2	DRSC08162	5.02e7	3.52e7		3.41e7	1.44e7
pug	DRSC17036	3.67e7	4.09e7		1.83e7	2.06e7
CG1773	DRSC06688	3.00e7	3.38e7		1.30e7	1.64e7
CG5715	DRSC15860	3.41e7	4.95e7		1.98e7	2.04e7
pwn	DRSC06035	4.14e7	3.02e7		1.96e7	1.52e7
CG8012	DRSC10951	3.02e7	3.07e7		1.48e7	1.29e7
scro	DRSC17099	3.33e7	3.31e7		1.53e7	1.42e7
scro	DRSC17102	5.75e7	6.06e7	2.4	2.38e7	2.20e7
I-3	DRSC20479	3.90e7	4.65e7		2.00e7	1.98e7
Cad86C	DRSC15587	3.81e7	3.63e7		1.90e7	1.92e7
Cad86C	DRSC15611	3.13e7	4.15e7		1.62e7	1.97e7
Alp6	DRSC06710	3.39e7	2.76e7		1.40e7	1.28e7
Rab3-GAP	DRSC02001	4.25e7			2.05e7	
cn	DRSC07594	2.97e7	4.33e7		1.50e7	1.84e7
CG1324	DRSC20496	4.34e7	4.29e7		1.87e7	1.94e7
Sidpn	DRSC02056	5.42e7			2.64e7	
Rnp4F	DRSC18706	2.28e7	2.64e7		1.21e7	1.22e7
Boh1	DRSC14487	5.12e7	5.87e7		2.20e7	2.74e7
Alg14	DRSC19983	3.01e7	2.80e7		1.69e7	1.41e7
CG34377	DRSC13559	4.38e7	3.76e7		2.30e7	1.75e7
CG34377	DRSC14708	3.59e7	4.57e7		5.77e7	1.97e7
CG34377	DRSC14709	3.32e7	4.48e7		6.80e7	1.94e7
CG34377	DRSC14710	3.96e7	4.65e7		6.59e7	2.11e7
CG34377	DRSC14711	3.69e7	4.55e7		6.54e7	2.17e7

Taken from above.
CG5715 [DRSC15860], calcium entry signal, replicate 2 (fluorescence units): 4.95e7
For “resting calcium signal, replicate 2 (fluorescence units)”, CG12448 [DRSC01967] shows 1.45e7
Entry for CG6972 [DRSC16159] under “resting calcium signal, replicate 2 (fluorescence units)”: 1.32e7
Value of ms(3)76Cc [DRSC11071] under “calcium entry signal, replicate 2 (fluorescence units)”: 4.49e7
Entry of Pgk [DRSC00769] in “calcium entry signal, replicate 2 (fluorescence units)”: 4.66e7
